# Results as given in PubChem BioAssay AID1259354 (Paczesny and Yang Labs, IUPUI and University of Michigan, 2018).
# Amino acid sequences for entries named in this document (tags omitted). A change or cut given only in a name is not applied to a line headed by its entry.
# UniProt Q01638: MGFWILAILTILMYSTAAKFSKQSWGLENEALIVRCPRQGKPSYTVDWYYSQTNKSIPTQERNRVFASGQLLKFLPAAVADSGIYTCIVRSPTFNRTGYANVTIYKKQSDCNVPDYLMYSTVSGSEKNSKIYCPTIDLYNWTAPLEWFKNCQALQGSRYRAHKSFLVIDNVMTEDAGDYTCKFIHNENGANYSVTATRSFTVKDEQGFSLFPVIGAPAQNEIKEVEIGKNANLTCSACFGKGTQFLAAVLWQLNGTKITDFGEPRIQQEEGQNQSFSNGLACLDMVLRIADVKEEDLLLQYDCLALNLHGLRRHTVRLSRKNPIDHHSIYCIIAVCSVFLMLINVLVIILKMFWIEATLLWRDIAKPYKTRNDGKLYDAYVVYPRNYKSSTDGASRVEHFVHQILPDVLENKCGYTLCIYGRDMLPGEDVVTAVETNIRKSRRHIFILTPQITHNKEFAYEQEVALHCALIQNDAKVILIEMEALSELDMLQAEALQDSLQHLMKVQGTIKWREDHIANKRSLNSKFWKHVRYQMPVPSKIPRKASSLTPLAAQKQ
# In all, about 78,000 compounds went through this assay and about 1,800 (2.3%) were called active. The shares of active, inactive and inconclusive entries below differ from those in the screen. Rule as the data show it: active = inhibition above about 30%; inconclusive = mostly about 10% to 28%; inactive = weaker than that.
# Biological target: Interleukin-1 receptor-like 1 (Homo sapiens) (UniProt Q01638)
# Experiment: blocks human ST2 binding to IL-33, primary screen, biochemical, AlphaLISA (AID 1259354)
# Settings: AlphaLISA ST2-Fc/biotin-IL-33 interaction, 1 h; at 17 µM, hits give high values
row,SMILES,inhibition
1,Cn1nc(C(=O)NCc2ccccc2-n2ccnc2)c2c1CCCC2,inactive
2,COC(=O)c1cccc(NC(=S)N[C@H]2CO[C@H]3[C@@H]2OC[C@@H]3n2nnnc2Oc2cccc(N(C)C)c2)c1,inactive
3,CCOC(=O)c1c(C)n(C)c2ccc(OC(=O)c3ccc(OC)c(OC)c3)cc12,inactive
4,CC(C)(C)CC(=O)N[C@@H]1C=C(C(=O)NCCC(N)=O)C[C@@H](O)[C@@H]1O,active: 83%
5,NS(=O)(=O)c1ccc(CNS(=O)(=O)c2ccc([N+](=O)[O-])cc2)cc1,inactive
6,COc1ccccc1-c1nccn1CC1(c2ccccc2)CCOCC1,inactive
7,COc1cc(C(=O)N2CCN=C2SCc2ccc(Cl)cc2)cc(OC)c1OC,inactive
8,Cc1cccc(CN2CCC(n3cc(CN4CCCC4)nn3)CC2)c1,inactive
9,CCn1c(C)cc(C)c(C(=O)N2C[C@@H]3C4CCC(CC4)[C@@H]3C2)c1=O,inconclusive: 15%
10,N#Cc1c(N)nc2sc(C(=O)c3ccc(Cl)cc3)c(N)c2c1-c1ccco1,inconclusive: 22%
11,CN(C)c1ncn(Cc2c(Cl)cccc2Cl)c2ncnc1-2,inactive
12,O=C(NCc1cccnc1)C1CCN(c2ccc(-c3cccs3)nn2)CC1,inconclusive: 20%
13,Clc1ccccc1N1CCN(Cc2ccoc2)CC1,inconclusive: 17%
14,O=C(CNc1ccc(Cl)cc1)c1ccc(Cl)cc1,inconclusive: 25%
15,CCOc1ccc(N=C/C(=C/Nc2ccc(OCC)cc2)c2ccccc2)cc1,active: 36%
16,Cc1nn(Cc2ccc(F)cc2)c(C)c1NC(=O)c1cc(CC(C)C)on1,inconclusive: 17%
17,Cc1ccccc1C1CCCN1C(=O)c1cnn2ccn(C)c12 (stereo not drawn),inconclusive: 15%
18,COc1cc2c(cc1C1CC(=O)Nc3c1c(-c1cccnc1)nn3C)CCC2 (stereo not drawn),inactive
19,Cc1ccc(C(C)C)c(OCC(=O)Nc2ncc(S(=O)(=O)c3ccc([N+](=O)[O-])cc3)s2)c1,inconclusive: 19%
20,CC(C)Nc1ccnc(-c2ccc(S(C)(=O)=O)cc2)n1,inconclusive: 22%
21,CCn1ccc(-c2c(-c3ccccc3)ncn2Cc2cccnc2-n2cncn2)n1,inactive
22,O=C(Cn1nc(-c2ccccc2)ccc1=O)NCCCN1CCN(Cc2ccccc2)CC1,inconclusive: 16%
23,Cc1ccc2c(CC(=O)NCc3csc(C)n3)cc(=O)oc2c1,inconclusive: 12%
24,C=CCc1cc(C(=O)N2CC[C@H](O)[C@@H](O)C2)ccc1OC,inconclusive: 10%

row,SMILES,inhibition
1,CCN(CCNC(=O)CN1C(=O)/C(=C/c2ccccc2F)Sc2ccccc21)c1ccccc1,active: 42%
2,CCN1C(=O)N(CCc2ccccc2)C2(CCN(Cc3cccc(OC)c3OC)CC2)C1=O,inactive
3,O=C(/C=C/c1ccc(O)c(O)c1)OC1[C@H](O)CC(O)(C(=O)O)C[C@@H]1O (stereo partly drawn),inconclusive: 15%
4,COc1ccc2cc(C3CN(Cc4nc(C)cc(C)n4)CCO3)ccc2c1 (stereo not drawn),inactive
5,CC(C)C[C@@H]1N[C@H](C(=O)NCc2ccc(C(F)(F)F)cc2)Cc2c[nH]c3cccc1c23,inconclusive: 20%
6,Cc1ccccc1OCC(=O)Nc1ccc(NC(=O)c2ccco2)c(Cl)c1,inactive
7,CC1=C(C(=O)Nc2ccc(Br)cn2)C(c2ccc(C)cc2)C2=C(CCCC2=O)N1 (stereo not drawn),inactive
8,O=C(NCc1ccccc1)c1ccccc1[N+](=O)[O-],inconclusive: 11%
9,COc1ccccc1Oc1ncccc1CNC(=O)C1(C)CC(C)=NO1 (stereo not drawn),inconclusive: 12%
10,CCc1cc(CN(C)C(=O)c2ccc3sc(C)nc3c2)on1,inconclusive: 20%
11,CSCc1nnc(NC(=O)c2ccc(S(=O)(=O)N3CCOCC3)cc2)o1,inconclusive: 10%
12,Cc1oc(C(C)C)cc1C(=O)NCCC1CCCN(C)C1 (stereo not drawn),inactive
13,Cc1ccc(C2(O)CCN(C(=O)c3c(-c4ccccc4)noc3C)CC2)nc1,inconclusive: 15%
14,CCC(C)(C)C(=O)Nc1ccc(S(=O)(=O)Nc2ncccn2)cc1,inactive
15,COC(=O)[C@@H]1Cc2ncn(Cc3ccc(OC)cc3)c2CN1C(=O)c1ccc(C#N)cc1,inconclusive: 23%
16,CC(=O)c1ccc(NC(=O)CN2CCCN(Cc3ccc(C)cc3)S2(=O)=O)cc1,inactive
17,CNCC(=O)N1CCCC(OCc2ccccn2)C1 (stereo not drawn),inactive
18,CCOc1ccc(-c2nc(SCC(=O)NC(C)C)n3[nH]c(=O)cc3n2)cc1,inactive
19,COc1ccc(N2C(=O)CC(Sc3nc4c(cc3C#N)CCCCC4)C2=O)cc1 (stereo not drawn),inactive
20,CN(Cc1ccccc1)Cc1cn([C@H]2CO[C@H]3[C@@H]2OC[C@@H]3NC(=O)Nc2cccc(C(F)(F)F)c2)nn1,inconclusive: 16%
21,CCOc1nc2c(c(=O)n(C)c(=O)n2C)n1Cc1ccccc1Cl,active: 30%
22,COCCOC(=O)c1c(C)oc2ccc(OCc3ccccc3C)cc12,inconclusive: 18%
23,CC(C)c1nc(CCOc2ccccc2)n(-c2ccccn2)n1,inconclusive: 16%
24,COc1cc2c(cc1OC)C1=CC(=O)C(=O)N1C(C)(C)C2,inconclusive: 12%

row,SMILES,inhibition
1,Cc1ccc(C)c(N2CCN(Cc3ccc(O)c([N+](=O)[O-])c3)CC2)c1,inconclusive: 29%
2,CC12NC(=O)NC(c3cc(Cl)ccc3O1)C2C(=O)Nc1ccc(Cl)cc1 (stereo not drawn),inactive
3,COc1cc(/C=C2\SC(N(C)c3ccc(O)cc3)=NC2=O)ccc1O,inconclusive: 11%
4,CCOc1ccccc1N1CCN(Cc2cc(Br)ccc2OC)CC1,inconclusive: 12%
5,CC1=C[C@@H](CNC(=O)c2ccncc2)[C@H](C(C)C)C[C@H]1CC(=O)NCc1ccccn1,inactive
6,Cc1ccc2nc(NC(=O)CSC3=NN4CCCC(=O)N=C4S3)sc2c1,inconclusive: 19%
7,O=C(O)C(CO)Nc1ncnc2ccccc12 (stereo not drawn),inactive
8,O=c1/c(=C/c2ccncc2)sc2nc3ccccc3n12,inconclusive: 19%
9,CC(C)c1noc(CN2CCC(N3CCCC(C(=O)N4CCCC4)C3)CC2)n1 (stereo not drawn),inconclusive: 23%
10,COc1ccc(NC2CCCN(Cc3noc(C4CC4)n3)C2)cc1OC (stereo not drawn),inactive
11,COc1ccc(N2CCN(C(c3cccs3)C(C)NS(=O)(=O)c3ccccc3)CC2)cc1 (stereo not drawn),inconclusive: 28%
12,CCOCCCNCc1c(Cl)cccc1Cl,inactive
13,COC(=O)[C@H]1C[C@@H](O)CCN1C(=O)c1nn(C)c2ccc(C)cc12,inconclusive: 12%
14,COCCCn1c(CN2C[C@@H](C)O[C@@H](C)C2)cnc1S(=O)(=O)C1CCCC1,inconclusive: 12%
15,CCN(C/C=C/c1ccccc1)C(=O)CCc1cn2ccccc2n1,inconclusive: 17%
16,CN1C[C@@H](NS(=O)(=O)c2ccc(Cl)cc2)C[C@H]1c1nc(-c2ccc(OC(F)(F)F)cc2)no1,inconclusive: 15%
17,C[C@]12CCC(=O)C=C1CC[C@@H]1[C@@H]2[C@@H](O)C[C@@]2(C)[C@H]1CC[C@]2(O)C(=O)CO,inconclusive: 19%
18,COc1cc(/C=C2\C(=O)N(c3ccc(Cl)c(C(=O)O)c3)N=C2C)c([N+](=O)[O-])cc1OC,active: 64%
19,Cc1ccc(N=Cc2cccc(C(=O)O)c2O)cc1,inactive
20,Oc1ccc(/C=C/c2ccc3cccc(O)c3n2)cc1Br,inconclusive: 18%
21,COc1cc(-c2nc(CN3[C@@H]4CC[C@H]3CNC4)c(C)o2)cc2c1OCO2,inactive
22,Cc1ccc(Nc2cc(C)nc(Nc3ccc(NC(=O)c4ccc(-c5ccccc5)cc4)cc3)n2)cc1,inconclusive: 21%
23,CC(C)C[C@@H]1N[C@H](C(=O)NCCCN2CCCC2=O)Cc2c[nH]c3cccc1c23,inconclusive: 13%
24,O=C(COc1ccccc1)N[C@H]1CO[C@H]2[C@@H]1OC[C@H]2OC(=O)Nc1ccccc1,inconclusive: 16%

# Given bar-delimited: 4 of the compounds above.
row | SMILES | inhibition
7 | CC1=C(C(=O)Nc2ccc(Br)cn2)C(c2ccc(C)cc2)C2=C(CCCC2=O)N1 (stereo not drawn) | inactive
18 | CCOc1ccc(-c2nc(SCC(=O)NC(C)C)n3[nH]c(=O)cc3n2)cc1 | inactive
11 | COc1ccc(N2CCN(C(c3cccs3)C(C)NS(=O)(=O)c3ccccc3)CC2)cc1 (stereo not drawn) | inconclusive: 28%
16 | CN1C[C@@H](NS(=O)(=O)c2ccc(Cl)cc2)C[C@H]1c1nc(-c2ccc(OC(F)(F)F)cc2)no1 | inconclusive: 15%

# Additional entries follow:

row,SMILES,inhibition
1,C=CCN(Cc1nc(-c2ccccc2)no1)C(=O)CC1=CCNCC1,inconclusive: 14%
2,O=C(Nc1ccc([N+](=O)[O-])cc1)c1c(F)cccc1F,inconclusive: 13%
3,O=C(O)c1cccc2c1NC(c1ccccc1Br)C1CC=CC21 (stereo not drawn),inactive
4,Cc1ccc(C(NC(=O)Cc2ccccn2)c2cccnc2)cc1C (stereo not drawn),inactive
5,Cn1cnnc1-c1cc(Cl)ccc1Cl,inconclusive: 12%
6,O=[N+]([O-])c1cc(-c2ncnn2-c2ccccc2C(F)(F)F)ccc1Cl,inconclusive: 10%
7,CNCCCC1c2ccccc2C=Cc2ccccc21,inconclusive: 19%
8,COc1ccc(N(CC(=O)Nc2ccc(OC)c(OC)c2)S(C)(=O)=O)cc1Cl,inconclusive: 10%
9,CN(C)CCN(C)C1CCN(Cc2ccccc2)CC1,inactive
10,Cc1cc(C(=O)N(Cc2ccsc2)CC(C)C)n[nH]1,inconclusive: 11%
11,CCNC(=O)c1cccc(-n2ccc(-c3cccnc3)n2)c1,inactive
12,Cc1cccn2c(=O)c(C=NCc3ccccc3)c(NCCO)nc12,inactive
13,CN(Cc1ccccc1)c1ncnc2c1cnn2-c1ccc(Cl)cc1,inconclusive: 10%
14,Nc1nnc(C23CC4CC(CC(C4)C2)C3)s1,inactive
15,CCOC(=O)c1c(NC(=O)c2c(F)cccc2F)sc2c1CCN(C)C2,inconclusive: 13%
16,CCCOc1ccc(C(=O)Nc2ccc(C)cc2)cc1,inconclusive: 13%
17,COCc1nnc(NC(=O)c2ccc(S(=O)(=O)N3CCCC(C)C3)cc2)o1 (stereo not drawn),inconclusive: 14%
18,Cc1ccc(N2C(=O)CC(Sc3nc(C)cc(C)n3)C2=O)cc1 (stereo not drawn),inconclusive: 10%
19,COc1ccc(Nc2cc(C)nc(Nc3ccc(NC(C)=O)cc3)n2)cc1,inconclusive: 12%
20,CCn1cc(Cn2cc(-c3ccc(OC)cc3OC)nn2)cn1,inconclusive: 12%
21,O=C(CSc1cn(CCNC(=O)c2ccc(F)cc2)c2ccccc12)Nc1ccc(F)cc1,inconclusive: 15%
